Assay results published in patent publication US9314509B2 (Ipsen Pharma S.A.S., priority 2009, dated 2016).

Assay: general procedure: Fmoc solid-phase peptide synthesis; Rink Amide MBHA resin (Polymer Laboratories), 0.91 mmol/g; HBTU/HOBT/DIPEA
Details: whole synthesis; for final HPLC purity: reverse-phase HPLC, C18 column (Vydac)
[1] = scale of the general procedure 0.20 mmoles

Ac-Arg-cyclo(Cys-D-Ala-His-D-Phe-Arg-Trp-Cys)-NH2
isolated mass: 28 mg | final HPLC purity (scale of the general procedure 0.20 mmoles, run 1): >95% | final HPLC purity (scale of the general procedure 0.20 mmoles, run 2): 95.1% | crude mass (scale 0.20 mmoles): ˜100 mg | isolated yield [1]: 24%

Ac-D-Arg-cyclo(Cys-D-Ala-His-D-Phe-Arg-Trp-Cys)-NH2
final HPLC purity [1]: 99.2%

Ac-Tyr-Arg-cyclo(Cys-D-Ala-His-D-Phe-Arg-Trp-Cys)-NH2
final HPLC purity [1]: 98.0%

hydantoin(Arg-Gly)-cyclo(Cys-Glu-His-D-Phe-Arg-Trp-Cys)-NH2
final HPLC purity [1]: 99.9%
